For at least one compound, name, drawing or mass did not settle the structure.
Test system: SD rats
Assay: Acute dermal toxicity test
Format: in vivo
Conditions: dose group 200 (head μg/kg bw)
Protocol: (1) Environmental Conditions: In the present experiment, experimental animals were bred in a clean animal breeding room (small animal room #2-302) at Hoseo University Safety Evaluation Center, set under environmental conditions: temperature of 22±3° C.; relative humidity of 50±20%; ventilation frequency of 10 to 15 times/hour; illumination period of 12 hours; and illuminance of 150 Lux to 300 Lux.
(2) Cages and rugs: Two or three animals per sex were accommodated in each of polycarbonate cages (270×500×200 mm, KYERYONG SCIENCE) with a stainless steel mesh lid during an acclimation period, and after group division, 1 animal per sex was accommodated therein. As the rugs, sterile betachips (NEPCO) irradiated with gamma rays were used. […]
(B) On the day of administration, a dosage for each individual was calculated, and then a test material was sufficiently wetted with a solvent and then applied on the site corresponding to about 10% (about 44 cm) of the entire surface area. […]
(A) General symptom observation: All animals were observed intensively from 30 minutes to 4 hours after administration, and general symptoms were observed once a day for 14 days. At the time of observation, death and clinical symptoms were recorded on an individual basis. […]
(E) Statistical analysis: Body weight data were expressed as mean and standard deviation, and no statistical analysis of body weight was performed.

Question: How did the “Mortality (%)” value (Female) turn out when `Cl.N=C(N)NC(=N)Nc1ccc(Cl)cc1` [IPS-07001] was run?
Answer: 0/3 (0) %

Question: And the “Mortality (%)” value (Male)?
Answer: 0/3 (0) %

Reference: patent publication US10278931B2, “Composition for treatment of inflammatory bowel disease and atopic dermatitis” (INNOPHARMASCREEN INC., priority 2015, dated 2019)
